Values quoted from earlier work, collected in US11173140B2, “Dosing regimens of PKC activators” (COGNITIVE RESEARCH ENTERPRISES, INC., priority 2015, dated 2021).
For at least one compound, name, drawing or mass did not settle the structure.

Biological target: PKC
Conditions: read-out: Kd (activates PKC); cited from earlier work

In the case of `CC(C)=CCC/C(C)=C/CC/C(C)=C/CSc1nc[nH]n1` [Farnesyl thiotriazole], the Kd is listed as 2.5 µM.
